Measured values reported in PubChem BioAssay AID540276 (National Center for Advancing Translational Sciences (NCATS), 2011).
About 5,400 (1.8%) of roughly 300,000 compounds were called active. Inconclusive results, whose numbers are uncertain, are shown with a selection of clear calls. The call rests on the fitted dose curve; tested in HEK293 cells. Potencies beside an inconclusive call are fits to weak or partial responses and may not hold up.

test: qHTS for inhibitors of binding or entry into cells for Marburg Virus; details: Marburg virus pseudotyped entry inhibition, cell reporter; series mostly up to 37.8 µM
Potency means the concentration at half of the fitted maximal effect.

SMILES	Potency
CCCc1nn(C)c2c1C(c1ccncc1)C(C#N)=C(N)O2 (centres undefined)	inconclusive: 0.1 µM [inhibitor, full curve, poor fit]
C/C(=N\Nc1nc2c(s1)CCCC2)c1ccc(Cl)cc1	inconclusive: 3.55 µM [activator, partial curve, poor fit]
CC(C)c1ccc(N(CC(=O)NCCSC(C)(C)C)S(C)(=O)=O)cc1	inconclusive: 7.3 µM [activator, partial curve, poor fit]
Cc1nn(-c2ccccc2)nc1CNS(C)(=O)=O	inactive
C=CCn1c(=NC(=O)c2cccc(N3C(=O)CCC3=O)c2)sc2cccc(OC)c21	inactive
Cc1[nH]c2ccccc2c1/C=N/NC(=O)CCC(=O)Nc1ccccc1	inconclusive: 10 µM [activator, partial curve, poor fit]
NS(=O)(=O)c1ccc(NC(=O)CSc2nc3c(cnn3-c3ccccn3)c(=O)[nH]2)cc1	inconclusive: 5.62 µM [activator, single point]
COC(=O)CC1C(=O)NCCN1C(=O)c1ccccc1 (centres undefined)	inactive
COC(C(=O)NC1CCCCCCC1)c1ccccc1 (centres undefined)	inconclusive: 6.31 µM [activator, single point]
CCOC(=O)c1ccc2[nH]c3c(c2c1)CCCC3O (centres undefined)	inactive
COc1ccc(CCc2nnc(NS(C)(=O)=O)s2)cc1	inconclusive: 35.5 µM [activator, single point]
COc1ccc(N=C2S/C(=C\c3ccc(C)s3)C(=O)N2CC(C)C)cc1	inactive
COc1ccc(-n2nc(C(=O)NCC(=O)N3CCC4(CC3)OCCO4)c3ccccc3c2=O)c(OC)c1	inconclusive: 3.16 µM [activator, partial curve, poor fit]
CCCc1c(C)c2ccc(OCC(C)=O)cc2oc1=O	inactive
O=C(CCS(=O)(=O)Cc1ccccc1)Nc1ncc([N+](=O)[O-])s1	inconclusive: 11.2 µM [inhibitor, partial curve, poor fit]
CC(C)(C)c1ccc(-c2nc(NCc3cccnc3)c3ccccc3n2)cc1	inconclusive: 17.8 µM [inhibitor, single point]
Cc1cc2c(nc1C)CCCN2CC(O)CN1CCN(C)CC1 (centres undefined)	inactive
CCn1c(SCC(=O)NNC(=O)c2ccccc2)nnc1-c1ccncc1	inactive
c1ccc(-c2cnc(SCCN3CCOCC3)n2CC2CCCO2)cc1 (centres undefined)	inactive
CCCCN(C)S(=O)(=O)c1ccc(C(=O)Nc2nnc(-c3ccco3)o2)cc1	inconclusive: 3.98 µM [inhibitor, partial curve, poor fit]
Cc1cccc(/C=C/c2onc(C)c2S(=O)(=O)N2CCC(C(=O)N3CCCCCC3)CC2)c1	inconclusive: 35.5 µM [inhibitor, single point]
COc1ccccc1N1CC(O)=C(c2nc3ccccc3s2)C1=N	inconclusive: 29.1 µM [inhibitor, single point]
Cc1ccc(O)c(NC(=O)c2cc(-c3cccs3)on2)c1	active: 8.91 µM

SMILES	Potency
COc1cccc(-c2noc(C3CCCN(C(=O)Cc4ccccc4)C3)n2)c1 (centres undefined)	inactive
O=C(c1ccc2c(c1)OCO2)C1CCCN(CC2CCCCC2)C1 (centres undefined)	inconclusive: 7.08 µM [inhibitor, partial curve, poor fit]
C=CCOC(=O)N[C@H](/C(C(=O)OC)=C(\C)NCc1ccccc1)c1ccc(Br)cc1	inactive
COc1ccc(Cl)cc1NC(=O)CN(C)Cc1cccs1	inconclusive: 20 µM [inhibitor, single point]
Cc1ccc(NC(=O)[C@@H](c2ccccc2)N2Cc3ccccc3C2=O)cc1F	inconclusive: 4.47 µM [inhibitor, single point]
N#Cc1c(N)nc(SCC(=O)NCCc2ccccc2)c(C#N)c1-c1cccs1	inconclusive: 2.82 µM [inhibitor, partial curve, poor fit]
Clc1ccc(-c2cn3c(n2)-c2ccccc2C3)cc1Cl	inconclusive: 35.5 µM [inhibitor, single point]
COc1ccccc1-n1c(=O)oc2ccc(Cl)cc2c1=O	inconclusive: 28.2 µM [inhibitor, single point]
O=c1[nH]c(=O)n(-c2cccc3ccccc23)c(O)c1/C=N/N1CCCCC1	inconclusive: 1.41 µM [activator, full curve, poor fit]
COc1ccc(CNC(=O)COC(=O)CO/N=C(\C)c2ccc3c(c2)OCO3)cc1	inactive
CC(C)N(C(C)C)S(=O)(=O)c1ccc(N2CCc3ccccc3C2)nc1	inconclusive: 35.5 µM [activator, single point]
CCC(=O)Nc1cc2nn(-c3ccc(C)cc3)nc2cc1C	inconclusive: 5.01 µM [inhibitor, single point]
Cc1nnsc1C(=O)NNC(=O)c1cccc2ccccc12	inconclusive: 3.16 µM [activator, single point]
O=C1[C@H]2[C@@H]3[C@@H](O)[C@H](O)CC(=NOCc4ccccc4)[C@@H]3CC[C@H]2C(=O)N1c1ccc(F)cc1F	inconclusive: 1.19 µM [activator, single point]
CC(C)CN1C(=O)CC(Sc2ccccc2C(=O)O)C1=O (centres undefined)	inconclusive: 23.1 µM [activator, single point]
COc1ccccc1N1CCN(C(=O)/C=C/c2ccc(C)cc2)CC1	inconclusive: 29.1 µM [activator, single point]
CN(C)c1ccc(/C=N/NC(=O)CCCO)cc1	inconclusive: 31.6 µM [activator, single point]
N#C/C(=C/c1cccs1)c1nc2ccccc2[nH]1	inconclusive: 0.794 µM [activator, full curve, poor fit]
CC(C)NC(=O)CSc1nc(Cc2cccs2)nc2ccccc12	inactive
Cc1nn(C2CCS(=O)(=O)C2)c2nc(C3CC3)cc(C(=O)Nc3cccc(C#N)c3)c12 (centres undefined)	inactive
O=C(CSC1=NCCS1)Nc1nc2c(s1)CCCC2	inactive
COc1ccc(CC(=O)Nc2cccc(-c3nnc(-c4ccco4)o3)c2)cc1	inconclusive: 3.55 µM [inhibitor, partial curve, poor fit]
O=C(COC(=O)c1ccccc1)Nc1cccc(S(=O)(=O)NC2=NCCCCC2)c1	inconclusive: 1.26 µM [activator, full curve, poor fit]

SMILES	Potency
CCOc1ccccc1-c1cc(-c2ccccc2)nc2c1c(=O)n(C)c(=O)n2C	inconclusive: 7.94 µM [inhibitor, single point]
C/C(=N/NC(=O)C1CC1(c1ccccc1)c1ccccc1)c1ccco1 (centres undefined)	inconclusive: 1.26 µM [inhibitor, single point]
CCOc1ccc(-c2onc(C(F)(F)F)c2-c2cscn2)c(O)c1	inactive
Cc1nc2c(c(C)nn2C(C)(C)C)c(C)c1CCC(=O)Nc1ccc(Br)cc1Br	inactive
Cc1ccc(-c2cn(-c3ccccc3)c(=S)[nH]2)cc1C	inconclusive: 3.98 µM [activator, partial curve, poor fit]
O=C(COc1ccccc1[N+](=O)[O-])OCC(=O)N1CCC(Cc2ccccc2)CC1	inconclusive: 11.2 µM [activator, single point]
CC(C)(C)c1ccc(C(=O)c2c[nH]c(C(=O)NCCc3ccccn3)c2)cc1	inconclusive: 35.5 µM [activator, single point]
CC1Oc2ccccc2C=C1/C=N/NC(=O)[C@@H](C)NC(=O)OC(C)(C)C (some centres undefined)	inconclusive: 0.398 µM [inhibitor, partial curve, poor fit]
CCOC(=O)C1(C)NC(c2cccs2)C2C(=O)N(c3ccc(OC)cc3)C(=O)C21 (centres undefined)	inconclusive: 3.55 µM [activator, single point]
CC(CCc1ccco1)NC(=O)Nc1cccc(F)c1 (centres undefined)	inactive
Cc1cc(N2CCCC(C(=O)Nc3cccc(Cl)c3)C2)n2ncnc2n1 (centres undefined)	inactive
O=C(NCc1ccccc1Cl)c1cc2ccccc2oc1=O	inactive
COc1ccc(C(C(=O)NC(C)(C)C)N(C(=O)CCC(=O)Nc2cc(C)on2)c2cccc(F)c2)cc1 (centres undefined)	inconclusive: 10 µM [inhibitor, partial curve, poor fit]
O=C(CN1CCC(C(O)(c2ccccc2)c2ccccc2)CC1)Nc1ccccc1	active: 23.1 µM
CCc1ccc(-n2c(O)c(/C=N/NC(=O)c3ccncc3)c(=O)[nH]c2=O)cc1	inconclusive: 0.251 µM [activator, partial curve, poor fit]
O=C1c2ccccc2C(=O)N1CCCOc1ccccc1	inconclusive: 35.5 µM [activator, single point]
CCOc1cc(C2NN=C(c3ccccc3)S2)ccc1OCc1ccc(F)cc1 (centres undefined)	inconclusive: 29.1 µM [inhibitor, single point]
C/C(=N\NC(=O)c1nnn(-c2nonc2N)c1C)c1ccc(-c2ccccc2)cc1	inactive
Cn1cccc1Cc1nnc(SCC(=O)NCc2ccco2)n1CCc1ccccc1	inactive
Cc1ccccc1CN1C(=O)c2ccccc2S(=O)c2ccc(C(=O)NCc3ccc4c(c3)OCO4)cc21 (centres undefined)	inactive
C=CCc1cc(/C=C2/NC(=O)N(CC)C2=O)cc(OCC)c1OCc1ccc(C(=O)O)cc1	inconclusive: 11.2 µM [inhibitor, partial curve, poor fit]
COc1ccc(-c2cc(C3CCN(C(=O)OC(C)(C)C)CC3)[nH]n2)cc1	inconclusive: 35.5 µM [inhibitor, single point]
CCc1cccc(C)c1NS(=O)(=O)c1cc(Br)cnc1N	inconclusive: 15.8 µM [inhibitor, single point]

Ordered by SMILES length (falling): part of the list above
SMILES	Potency
C/C(=N\NC(=O)c1nnn(-c2nonc2N)c1C)c1ccc(-c2ccccc2)cc1	inactive
COc1ccc(-c2cc(C3CCN(C(=O)OC(C)(C)C)CC3)[nH]n2)cc1	inconclusive: 35.5 µM [inhibitor, single point]
Cn1cccc1Cc1nnc(SCC(=O)NCc2ccco2)n1CCc1ccccc1	inactive
CCOc1ccc(-c2onc(C(F)(F)F)c2-c2cscn2)c(O)c1	inactive
